Laboratory results published in PubChem BioAssay AID2685 (National Center for Advancing Translational Sciences (NCATS), 2010).
Screen size: about 320,000 compounds; about 2,100 (0.66%) were called active. This list was built around the results that the source calls inconclusive (neither active nor inactive); the mix of calls is not that of the screen. The call rests on the fitted dose curve; in most records, active means well fitted inhibition curve with a large enough effect in the signal ratio, with a control signal flat (not every such curve was filed as active); inconclusive means small, poorly fitted or top-dose-only effect, or effect the other way, or a change in a side signal; inactive means flat fitted curve, though single readings scatter; the % refers to the signal ratio. Potencies of inconclusive entries are doubtful fits and often do not repeat.

test: qHTS Assay for Lipid Storage Modulators in Drosophila S3 Cells; details: BODIPY lipid droplet fluorescence, 18-24 h, cells fed with added oleic acid; lipid storage change, negative = inhibition: at 46.1 µM (top of the series) unless noted
In short: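 Drosophila S3 cells loaded with oleic acid (400 uM, as added) and compounds at several concentrations; lipid droplets imaged by 488-nm laser-scanning cytometry, 500–530 nm intensity and object ratio to cell channel. Percent activity normalized to 20 uM Triacsin C.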
On the % scale 0 is the no-effect control and ±100 the full control effect; potency means the concentration at half of the fitted maximal effect.

SMILES	lipid storage change, negative = inhibition	Potency
O=C(/C=C/c1c(F)cccc1Cl)Nc1ccncc1	inconclusive: 16.9%	–
COc1ccc(-n2c(=S)[nH]c3cc(C(=O)NCCCN4CCOCC4)ccc3c2=O)cc1OC	–	inconclusive: 5.17 µM [activator, full curve]
Cc1ccc(/C=C/C(=O)N2CCN(c3ncccn3)CC2)o1	inconclusive: 11.1%	–
Cc1nnc(NC(=O)CSc2nccn2Cc2ccccc2)s1	–	inconclusive: 0.82 µM [activator, full curve, poor fit]
CCOC(=O)N1CCN(S(=O)(=O)c2ccc(C(=O)Nc3nnc(C4CC4)o3)cc2)CC1	inconclusive: 39.4%	–
O=C(NNc1c2ccccc2nc2ccccc12)C12CC3CC(CC(C3)C1)C2	–	inconclusive: 20.6 µM [cytotoxic, single point]
CC(C)c1c(C(=O)N/N=C/c2ccoc2)nnn1-c1nonc1N	inconclusive: 96.8%	–
CN(C)c1cc[n+](CC(=O)Nc2ccc(Oc3ccccc3)cc2)cc1	inconclusive: 21.5%	–
CCCS(=O)(=O)N1CCC(C(=O)NCCN2CCC(Cc3ccccc3)CC2)CC1	inconclusive: -1.12%	–
COc1ccc(NS(=O)(=O)c2ccc3c(c2)OCCO3)cc1OC	inconclusive: 39.4%	–
C/C(=N\NC(=O)c1cc(-c2ccc(Cl)s2)[nH]n1)c1ccncc1	–	inconclusive: 20.6 µM [activator, single point]
CCOc1ncccc1C(=O)OCc1csc(CC(=O)Nc2ccccc2C)n1	–	inconclusive: 6.51 µM [falling, single point]
Cc1ccc(NC(=O)c2cc3c(s2)CCCC3)cc1S(=O)(=O)Nc1ccccc1Cl	inconclusive: -3.77%	–
CN(C(=O)c1ccco1)c1nnc(C23CC4CC(CC(C4)C2)C3)s1	–	inconclusive: 20.6 µM [falling, single point]
O=C(NCc1ccccc1)c1ccc[n+]([O-])c1	inconclusive: 12%	–
COc1ccc(-n2ncc3c(N4CCN(c5cc(C)ccc5C)CC4)ncnc32)cc1	inconclusive: 12%	–
CNS(=O)(=O)c1ccc(C)c(S(=O)(=O)NC)c1	inconclusive: -14.9%	–

Structures from the list above that have four or more nitrogen atoms (7):
SMILES	lipid storage change, negative = inhibition	Potency
COc1ccc(-n2c(=S)[nH]c3cc(C(=O)NCCCN4CCOCC4)ccc3c2=O)cc1OC	–	inconclusive: 5.17 µM [activator, full curve]
Cc1ccc(/C=C/C(=O)N2CCN(c3ncccn3)CC2)o1	inconclusive: 11.1%	–
Cc1nnc(NC(=O)CSc2nccn2Cc2ccccc2)s1	–	inconclusive: 0.82 µM [activator, full curve, poor fit]
CCOC(=O)N1CCN(S(=O)(=O)c2ccc(C(=O)Nc3nnc(C4CC4)o3)cc2)CC1	inconclusive: 39.4%	–
CC(C)c1c(C(=O)N/N=C/c2ccoc2)nnn1-c1nonc1N	inconclusive: 96.8%	–
C/C(=N\NC(=O)c1cc(-c2ccc(Cl)s2)[nH]n1)c1ccncc1	–	inconclusive: 20.6 µM [activator, single point]
COc1ccc(-n2ncc3c(N4CCN(c5cc(C)ccc5C)CC4)ncnc32)cc1	inconclusive: 12%	–

Additional records.

SMILES	lipid storage change, negative = inhibition	Potency
CC(=O)N1CCCC(N2CCN(c3cccc(C(F)(F)F)c3)CC2)C1 (centres undefined)	–	inconclusive: 0.326 µM [falling, partial curve, poor fit]
O=C(NCCc1ccccc1)C1CCCN1C(=O)NCc1ccccc1 (centres undefined)	inconclusive: -13.4%	–
Cc1nn2c3c(cnc2c1-c1ccc(Cl)cc1)C(=O)CC(c1ccco1)C3 (centres undefined)	–	inconclusive: 16.4 µM [activator, single point]
COc1ccc(NC(=O)N2CCCC(C(=O)Nc3ccccc3OC)C2)cc1 (centres undefined)	inactive	–
CCCCCCC(C)OC(=O)Nc1cccc2ccccc12 (centres undefined)	–	inconclusive: 0.0052 µM [falling, full curve, poor fit]
CCC(=O)Nc1ccnc(-c2cccnc2)n1	inconclusive: 28.4%	–
COc1ccc(OC)c(/C=C/C(=O)OCC(=O)Nc2nnc(-c3ccccc3)o2)c1	–	inconclusive: 2.06 µM [activator, single point]
CCOP(=O)(c1ccc(N(C)C)cc1)C(O)c1cccnc1 (centres undefined)	inconclusive: -12.1%	–
CC(O)C(O)C(O)C(O)C1NCCS1 (centres undefined)	–	inconclusive: 4.11 µM [falling, full curve, poor fit]
CC(=O)c1ccc(OCCCC(=O)NC2CCCc3ccccc32)cc1 (centres undefined)	inconclusive: 23.9%	–
COc1ccc(NS(=O)(=O)c2ccc(N3CCN(CCO)CC3)c([N+](=O)[O-])c2)cc1	–	active: 10.3 µM
CCC12CN(C(=O)c3ccc([N+](=O)[O-])cc3)CC(CC)(CN(C(=O)c3ccc([N+](=O)[O-])cc3)C1)C2=O	inconclusive: -0.362%	–
Cc1ccc(-c2nn(CC(=O)NCc3cc(-c4nn(C)c(=O)c5ccccc45)ccc3C)c(=O)c3ccccc23)cc1	–	inconclusive: 29.1 µM [activator, single point]
CC(=O)c1cccc(NC(=O)c2sc(Cl)nc2C)c1	inactive	–
CC(C)(C)c1ccc(C2(C)NC(=O)N(CC(=O)NC3CCS(=O)(=O)C3)C2=O)cc1 (centres undefined)	inconclusive	–
O=C(COC(=O)c1cnccn1)Nc1c(Cl)cc(Cl)cc1Cl	–	inconclusive: 3.66 µM [activator, single point]
COC(=O)c1ccc(CSc2n[nH]c(C)n2)o1	inconclusive: 5.59%	–
